Counter-ions that a name gives are not always drawn. At least one compound was matched to its structure with a doubt left.
How the values were obtained:
Srd5a1 deficient mice = Srd5a1 deficient mice (27% delivery rate without treatment); cited from earlier work
Akr1c18 deficient mice = settings: administered at E19; cited from earlier work
[1] = system: Fkbp5+/+ and Fkbp5-/- mice; test: Maternal dexamethasone or corticosterone injection, gestational length in Fkbp5+/+ or Fkbp5-/- mice; assay type: in vivo; settings: dexamethasone 200 μg/kg i.p. daily E8 through E18, Fkbp5+/+ or Fkbp5-/- mice
Experimental: Timing of Labor in Fkbp5^+/+ and Fkbp5^−/− Mice. To examine the effect of deletion of the Fkbp5 gene on birth timing, female Fkbp5^+/+ and Fkbp5^−/− mice (6-8 weeks-old) were mated with an adult Fkbp5^+/+ male (12-16 weeks old) by housing 1:1 for 4 h (9.00 am-1.00 pm). Pregnancy was confirmed by the presence of a vaginal plug or sperm in vaginal smears; gestational day (E) was designated at that time (10.00 am) as 0 dpc of pregnancy. The timing of delivery was monitored from E18 through E21 by observing mice every 4 h upon completion of delivery, and gestational length was calculated. Litter size, numbers of live and dead pups were recorded. Additionally, to determine whether there was a relative contribution of fetal genotype on birth timing, female Fkbp5^−/− mice were also mated with an adult male Fkbp5^−/− mice as described above and timing of labor was recorded.
Maternal Dexamethasone or Corticosterone injection. Dexamethasone-21-phosphate disodium salt (DEX; Sigma-Aldrich, St. Louis, MO) suspended in sterile PBS was administered intraperitoneally at 200 μg/kg. Corticosterone (CORT; Sigma-Aldrich) was dissolved in ethyl alcohol and diluted in PBS before injection and administered subcutaneously at 10 mg/kg. […]

FKBP51 = settings: cultured primary human decidual cells; cited from earlier work

CC#C[C@]1(O)CC[C@H]2[C@@H]3CCC4=CC(=O)CCC4=C3[C@@H](c3ccc(N(C)C)cc3)C[C@@]21C [RU486]
parturition rate (Srd5a1 deficient mice): 100%
parturition after administration (Akr1c18 deficient mice): normal parturition on the following day

C[C@@H]1C[C@H]2[C@@H]3CCC4=CC(=O)C=C[C@]4(C)[C@@]3(F)[C@@H](O)C[C@]2(C)[C@@]1(O)C(=O)CO [dexamethasone, Dexamethasone-21-phosphate disodium salt]
gestational length [1]: did not shorten gestation
FKBP51 levels (FKBP51): up-regulated

Reference: patent US12409182B2, “Compositions and uses thereof for treatment of idiopathic preterm birth” (UNIVERSITY OF SOUTH FLORIDA, priority 2020, dated 2025)
